From article PMC11332193 come the findings set out here.

Sequences of proteins named here, by UniProt entry; tags and fusion partners are left off. Residues count along the entry.
UniProt P05121, residues 24-402: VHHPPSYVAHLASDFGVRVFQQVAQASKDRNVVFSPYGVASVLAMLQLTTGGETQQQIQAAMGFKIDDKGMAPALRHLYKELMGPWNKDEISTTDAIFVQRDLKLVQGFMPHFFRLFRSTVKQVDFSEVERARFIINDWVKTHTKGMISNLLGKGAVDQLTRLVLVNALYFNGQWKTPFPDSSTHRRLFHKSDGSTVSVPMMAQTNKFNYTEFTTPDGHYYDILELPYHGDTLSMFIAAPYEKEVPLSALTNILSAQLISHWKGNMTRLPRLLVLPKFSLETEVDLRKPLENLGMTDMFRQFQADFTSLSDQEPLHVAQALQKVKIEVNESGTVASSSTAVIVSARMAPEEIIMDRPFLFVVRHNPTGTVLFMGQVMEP
UniProt P29590: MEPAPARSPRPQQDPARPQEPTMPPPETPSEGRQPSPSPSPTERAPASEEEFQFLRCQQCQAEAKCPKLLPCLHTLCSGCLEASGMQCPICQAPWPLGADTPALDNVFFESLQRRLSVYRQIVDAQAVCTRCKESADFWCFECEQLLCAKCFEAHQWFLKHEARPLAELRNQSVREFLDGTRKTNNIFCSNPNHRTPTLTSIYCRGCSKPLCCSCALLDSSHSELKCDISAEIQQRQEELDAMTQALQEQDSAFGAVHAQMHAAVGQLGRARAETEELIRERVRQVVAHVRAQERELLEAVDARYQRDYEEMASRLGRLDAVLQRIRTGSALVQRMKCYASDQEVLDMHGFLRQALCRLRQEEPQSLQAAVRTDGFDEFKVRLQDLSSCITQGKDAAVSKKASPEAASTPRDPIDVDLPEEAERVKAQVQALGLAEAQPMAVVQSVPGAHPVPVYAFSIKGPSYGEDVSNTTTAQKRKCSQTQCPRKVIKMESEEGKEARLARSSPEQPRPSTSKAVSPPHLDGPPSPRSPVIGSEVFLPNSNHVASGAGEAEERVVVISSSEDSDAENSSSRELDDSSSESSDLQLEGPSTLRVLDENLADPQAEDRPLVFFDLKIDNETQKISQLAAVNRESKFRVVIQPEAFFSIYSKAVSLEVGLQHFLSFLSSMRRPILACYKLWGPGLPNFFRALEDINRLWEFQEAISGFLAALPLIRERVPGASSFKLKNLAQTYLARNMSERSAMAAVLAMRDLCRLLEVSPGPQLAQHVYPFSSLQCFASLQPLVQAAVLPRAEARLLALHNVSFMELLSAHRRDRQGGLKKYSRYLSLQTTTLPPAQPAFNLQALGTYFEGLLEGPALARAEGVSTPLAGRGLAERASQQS

Results are given in words; binding and its absence hold for the method and conditions named. In cells and extracts the contact can be indirect. Some binding calls cover weakened binding; strength is not graded here.

The target of the assay is Plasminogen activator inhibitor-1 (human (endogenous in HUVEC)) (UniProt P05121). Briefly: co-IP; nuclear lysate of HUVECs incubated overnight with 3 ug PAI-1 (C-09) antibody, protein G microbeads 1 h (Nuclear Co-IP-Kit, Active Motif); Western blot for PAI-1 and PML. (Immunoblotting shows a protein as a band on a membrane.)

As for “Promyelocytic Leukemia Protein (from UniProt P29590 1-882)”, the binding entry is “binds”.
